In paper doi:10.1101/2024.06.16.599182:
Results are given in words; binding and its absence hold for the method and conditions named. In cells and extracts the contact can be indirect. Some entries that bind do so weakly or less than the wild type. For some assays here: Sequences can lack the tags named with a protein.

Amino acid sequences for entries named in this document (tags omitted).
UniProt Q9R210: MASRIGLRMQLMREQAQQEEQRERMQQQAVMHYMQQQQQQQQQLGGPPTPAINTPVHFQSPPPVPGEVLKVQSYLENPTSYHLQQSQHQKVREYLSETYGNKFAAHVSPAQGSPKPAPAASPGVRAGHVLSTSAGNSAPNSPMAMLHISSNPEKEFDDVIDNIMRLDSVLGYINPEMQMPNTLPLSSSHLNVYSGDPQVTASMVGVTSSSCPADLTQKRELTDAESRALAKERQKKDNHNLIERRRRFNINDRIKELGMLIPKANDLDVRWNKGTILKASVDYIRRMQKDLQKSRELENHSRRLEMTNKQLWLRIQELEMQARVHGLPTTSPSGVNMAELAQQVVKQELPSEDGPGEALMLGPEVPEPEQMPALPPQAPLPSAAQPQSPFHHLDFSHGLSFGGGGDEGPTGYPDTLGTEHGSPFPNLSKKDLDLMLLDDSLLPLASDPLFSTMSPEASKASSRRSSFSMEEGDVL

How the values were obtained:
[1] = molecular target: transcription factor EB (TFEB), endogenous in mouse ependymal cells (mouse (endogenous in EPCs)) (UniProt Q9R210); assay: co-IP
[2] = molecular target: GFP-TFEB (full-length mouse Tfeb in pLV-EGFP-C1) (mouse) (UniProt Q9R210); assay: co-IP

binding [1] | binding [2] | Binder
binds |  | LHX2, endogenous in mouse ependymal cells (protein, UniProt Q9Z0S2 1-406) MLFHSLSGPEVHGVIDEMDRRAKSEAPAISSAIDRGDTETTMPSISSDRAALCAGCGGKISDRYYLLAVDKQWHMRCLKCCECKLNLESELTCFSKDGSIYCKEDYYRRFSVQRCARCHLGISASEMVMRARDLVYHLNCFTCTTCNKMLTTGDHFGMKDSLVYCRLHFEALLQGEYPAHFNHADVAAAAAAAAAAKSAGLGSAGANPLGLPYYNGVGTVQKGRPRKRKSPGPGADLAAYNAALSCNENDAEHLDRDQPYPSSQKTKRMRTSFKHHQLRTMKSYFAINHNPDAKDLKQLAQKTGLTKRVLQVWFQNARAKFRRNLLRQENTGVDKTSDATLQTGTPSGPASELSNASLSPSSTPTTLTDLTSPTLPTVTSVLTSVPGNLEGHEPHSPSQTTLTNLF
 | binds | FLAG-LHX2 (full-length mouse Lhx2 in pcDNA3.1-FLAG) (protein, UniProt Q9Z0S2 1-406) MLFHSLSGPEVHGVIDEMDRRAKSEAPAISSAIDRGDTETTMPSISSDRAALCAGCGGKISDRYYLLAVDKQWHMRCLKCCECKLNLESELTCFSKDGSIYCKEDYYRRFSVQRCARCHLGISASEMVMRARDLVYHLNCFTCTTCNKMLTTGDHFGMKDSLVYCRLHFEALLQGEYPAHFNHADVAAAAAAAAAAKSAGLGSAGANPLGLPYYNGVGTVQKGRPRKRKSPGPGADLAAYNAALSCNENDAEHLDRDQPYPSSQKTKRMRTSFKHHQLRTMKSYFAINHNPDAKDLKQLAQKTGLTKRVLQVWFQNARAKFRRNLLRQENTGVDKTSDATLQTGTPSGPASELSNASLSPSSTPTTLTDLTSPTLPTVTSVLTSVPGNLEGHEPHSPSQTTLTNLF
